Experiment [1] concerns the target HSFA2-YFP expressed from pHSFA2::HSFA2-YFP (A. thaliana) (UniProt O80982). The experiment can be described thus: co-IP; seedlings carrying pHSFA2::HSFA2-YFP and pHSFA3::FLAG-HSFA3 in hsfa2 hsfa3-1, sampled after ACC up to 76 h; native extract (50 mM Tris-HCl pH 7.5, 150 mM NaCl, 2% Triton X-100); anti-DYKDDDDK paramagnetic beads 1.5 h at 4 °C for FLAG-HSFA3, reciprocal precipitation of HSFA2-YFP (beads not told); blots with anti-GFP and anti-FLAG.

Amino acid sequences for entries named in this document (tags omitted). A change or cut given only in a name is not applied to a line headed by its entry. Residues count along the entry.
UniProt O80982: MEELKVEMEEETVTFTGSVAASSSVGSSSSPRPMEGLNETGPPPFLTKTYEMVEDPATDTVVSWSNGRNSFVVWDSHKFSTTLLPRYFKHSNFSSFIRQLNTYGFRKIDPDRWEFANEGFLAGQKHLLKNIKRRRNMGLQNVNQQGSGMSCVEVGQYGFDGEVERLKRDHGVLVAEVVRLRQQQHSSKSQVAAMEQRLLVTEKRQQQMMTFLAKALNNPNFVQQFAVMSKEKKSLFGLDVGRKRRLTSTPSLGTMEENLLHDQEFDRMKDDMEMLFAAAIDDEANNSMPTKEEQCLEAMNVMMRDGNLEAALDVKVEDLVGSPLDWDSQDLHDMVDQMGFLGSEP
GAL4 DNA-binding domain fusion of HSFA2 aa 1-269 (A2Δ): residues 1-269 of O80982
UniProt Q9SV12: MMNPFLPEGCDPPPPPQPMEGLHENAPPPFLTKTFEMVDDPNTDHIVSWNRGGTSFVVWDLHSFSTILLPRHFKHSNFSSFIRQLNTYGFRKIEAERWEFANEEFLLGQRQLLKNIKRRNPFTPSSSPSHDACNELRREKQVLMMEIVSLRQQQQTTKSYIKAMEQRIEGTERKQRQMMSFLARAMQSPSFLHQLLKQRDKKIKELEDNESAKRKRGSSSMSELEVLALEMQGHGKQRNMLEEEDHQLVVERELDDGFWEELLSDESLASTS
UniProt P41151: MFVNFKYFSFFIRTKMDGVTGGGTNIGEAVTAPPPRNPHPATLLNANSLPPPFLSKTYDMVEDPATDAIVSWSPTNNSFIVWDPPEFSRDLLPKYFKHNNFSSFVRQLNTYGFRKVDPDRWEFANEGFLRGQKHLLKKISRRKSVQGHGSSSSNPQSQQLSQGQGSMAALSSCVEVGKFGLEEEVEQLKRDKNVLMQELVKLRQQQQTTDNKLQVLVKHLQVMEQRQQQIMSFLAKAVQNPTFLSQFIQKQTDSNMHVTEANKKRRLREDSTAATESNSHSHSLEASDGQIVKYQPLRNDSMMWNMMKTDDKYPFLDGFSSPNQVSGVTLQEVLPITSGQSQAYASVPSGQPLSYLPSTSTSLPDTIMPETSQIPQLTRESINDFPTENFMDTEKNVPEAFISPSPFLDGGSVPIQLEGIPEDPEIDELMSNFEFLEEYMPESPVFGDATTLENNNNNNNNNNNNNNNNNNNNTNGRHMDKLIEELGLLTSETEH
UniProt O81821: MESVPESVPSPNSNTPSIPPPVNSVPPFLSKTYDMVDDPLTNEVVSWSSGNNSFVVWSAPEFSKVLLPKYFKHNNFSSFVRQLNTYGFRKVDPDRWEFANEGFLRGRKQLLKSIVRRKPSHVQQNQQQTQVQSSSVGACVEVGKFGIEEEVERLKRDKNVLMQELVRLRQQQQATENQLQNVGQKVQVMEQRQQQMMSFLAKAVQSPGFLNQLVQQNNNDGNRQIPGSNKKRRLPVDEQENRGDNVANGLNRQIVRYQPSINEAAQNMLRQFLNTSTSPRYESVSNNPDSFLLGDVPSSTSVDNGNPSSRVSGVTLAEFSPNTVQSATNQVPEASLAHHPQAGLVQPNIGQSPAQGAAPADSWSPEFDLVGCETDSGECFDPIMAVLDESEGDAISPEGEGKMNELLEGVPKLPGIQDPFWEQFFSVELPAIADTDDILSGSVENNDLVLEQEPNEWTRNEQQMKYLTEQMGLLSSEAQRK
UniProt Q9LQM7: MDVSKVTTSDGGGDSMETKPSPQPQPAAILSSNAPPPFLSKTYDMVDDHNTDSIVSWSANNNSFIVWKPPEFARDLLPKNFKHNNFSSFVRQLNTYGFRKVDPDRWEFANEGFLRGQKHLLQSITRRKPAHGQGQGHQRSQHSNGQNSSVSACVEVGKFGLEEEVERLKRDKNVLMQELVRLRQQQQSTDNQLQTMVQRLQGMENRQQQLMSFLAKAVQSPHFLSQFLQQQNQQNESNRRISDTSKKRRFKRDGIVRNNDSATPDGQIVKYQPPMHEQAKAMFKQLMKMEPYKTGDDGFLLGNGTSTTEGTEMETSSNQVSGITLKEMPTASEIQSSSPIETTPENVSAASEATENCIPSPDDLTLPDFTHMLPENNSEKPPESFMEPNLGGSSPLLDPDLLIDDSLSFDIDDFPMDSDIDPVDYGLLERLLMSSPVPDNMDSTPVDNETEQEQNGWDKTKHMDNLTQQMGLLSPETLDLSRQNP

For experiment [2], the target named is Halo-tagged HSFA7A (pIX-HALO), in vitro translated (A. thaliana) (UniProt Q9SV12). The experiment can be described thus: pull-down; pairs of Halo-tagged and FLAG-tagged HSFs co-translated in vitro (TNT wheat germ); incubated overnight with Magne HaloTag beads, washed three times in PBS/0.1% NP-40; blots with anti-FLAG and anti-Halo.
The target in experiment [3] is Halo-tagged HSFA1A (pIX-HALO), in vitro translated (A. thaliana) (UniProt P41151). The experiment is described as above.
Experiment [4] deals with Halo-tagged HSFA1B (pIX-HALO), in vitro translated (A. thaliana) (UniProt O81821). The description is as above.
Experiment [5] concerns the target Halo-tagged HSFA1D (pIX-HALO), in vitro translated (A. thaliana) (UniProt Q9LQM7). The description is as above.
Experiment [6] deals with GAL4 DNA-binding domain fusion of HSFA2 aa 1-269 (A2Δ) (A. thaliana) (UniProt O80982). The experiment can be described thus: two-hybrid; yeast MaV203, pGBKT7 (bait) and pGADT7 (prey); growth on SD-WLH with 50 mM 3-AT, 28 °C; BD fusions truncated (A2Δ aa 1-269, A3Δ aa 1-275).

Results are given in words; binding and its absence hold for the method and conditions named. For part of these data: In cells and extracts the contact can be indirect. Some binding calls cover weakened binding; strength is not graded here.

For “3xFLAG-HSFA3 (FORGETTER3/HEAT SHOCK …ON FACTOR A3) expressed from pHSFA3::FLAG-HSFA3 (from UniProt Q8GYY1 1-412)”, the binding result in experiment [1] was “binds”.
In the case of “3xFLAG-tagged HSFA3 (pIX-FLAG), in vitro translated (from UniProt Q8GYY1 1-412)”, the binding result in experiment [2], in experiment [3], in experiment [4] and in experiment [5] was “binds” each time.
On to “HSFA3 in pGADT7 (yeast two-hybrid prey) (from UniProt Q8GYY1 1-412)”, for which the binding result in experiment [6] was “binds”.

The values are drawn from paper PMC8187452.
